Reference: PubChem BioAssay AID504834 (National Center for Advancing Translational Sciences (NCATS), 2011)
Hit rate of the full screen: of about 320,000 compounds, about 22,000 (6.9%) were called active. Inconclusive results, whose numbers are uncertain, are shown with a selection of clear calls. Calls come from the whole dose curve; as a rule, active = well fitted inhibition curve with a large enough effect; inconclusive = small, poorly fitted or top-dose-only effect, or another doubt; inactive = no such curve, though single readings can be large or run the other way. Where the call is inconclusive, the potency comes from a doubtful curve fit.

Test: Primary qHTS for delayed death inhibitors of the malarial parasite plastid, 96 hour incubation
Details: P. falciparum luciferase reporter growth; series mostly up to 28.7 µM
In short: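 Erythrocytes infected with luciferase-expressing P. falciparum were dispensed at 2% hematocrit and 0.05% parasitemia (final), then incubated with compounds 96 hours at 37 C in 5% CO2. Luminescence after detection reagent addition reported growth.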
Potency is the fitted concentration of half-maximal effect.

SMILES | Potency
O=C(Nc1ccc(NC(=O)c2cccnc2)cc1)c1ccccc1 | inactive
CCN(CC)C(=O)COc1ccc(Br)cc1Cl | inactive
CCCC1(C)NC(=O)c2ccccc2O1 (configuration not stated) | inconclusive: 1.85 µM [inhibitor, full curve]
Cn1c(N2CCOCC2)nc2c1c(=O)n(Cc1ccc(Cl)c(Cl)c1)c(=O)n2C | inconclusive: 10.4 µM [inhibitor, partial curve, poor fit]
CCn1c(=O)n(CC)c2cc(NC(=O)c3ccccc3Cl)ccc21 | inconclusive: 9.28 µM [inhibitor, single point]
CN1CCN(S(=O)(=O)c2ccc(NC(=O)C(C)(C)C)cc2)CC1 | inconclusive: 18.5 µM [inhibitor, single point]
Cc1ccc(C(=O)Nc2ccccc2N2CCOCC2)cc1S(=O)(=O)N1CCOCC1 | inconclusive: 3.7 µM [inhibitor, full curve]
COc1cc(C(=O)NC2CCCCC2)ccc1OC1CCN(C(C)=O)CC1 | inactive
CCCc1nnc(NC(=O)CN2C(=O)C3C4C=CC(C4)C3C2=O)s1 (configuration not stated) | inconclusive: 18.5 µM [inhibitor, single point]
Cn1c(=O)c2c(SCC(=O)Nc3ccc4c(c3)OCCO4)nc(CC(C)(C)C)nc2n(C)c1=O | inconclusive: 11.7 µM [inhibitor, partial curve, poor fit]
COc1ccc(/C=N/NC(=O)CCSc2nc3ccccc3s2)cc1OC | inconclusive: 9.28 µM [inhibitor, single point]
CC1CCCC(NC(=O)C2CCN(S(=O)(=O)c3cccc4nonc34)CC2)C1C (configuration not stated) | inactive
COC(=O)c1cc2sc(Cl)cc2n1CC(=O)N1CCCc2ccccc21 | inactive
CCOc1ccc(CNC(=O)c2cccc(NC(=O)C3=C(C)OCCS3)c2)cc1 | inconclusive: 18.5 µM [inhibitor, single point]
CCOC(=O)C1C(=O)C=C(C)C(C(=O)OCC)C1c1cccc([N+](=O)[O-])c1 (configuration not stated) | inconclusive: 4.65 µM [inhibitor, partial curve]
Cc1ccc(-c2csc(NC(=O)C3=NN(C4CCS(=O)(=O)C4)C(=O)CC3)n2)cc1 (configuration not stated) | inactive
CCOC(=O)CNC(=O)c1cnn2cccnc12 | inconclusive: 10.4 µM [inhibitor, single point]
CC1(C)NC(=O)N(CC(O)CN(c2ccccc2)S(=O)(=O)c2ccccc2[N+](=O)[O-])C1=O (configuration not stated) | inactive
CC(C)OP(=O)(c1ccc(N(C)C)cc1)C(Nc1ccccc1)c1cccnc1 (configuration not stated) | inactive
CC(CC(=O)O)CC(=O)Nc1ccc(Br)cc1 (configuration not stated) | inactive
Cc1ccc(C)c(-c2nnc(NC(=O)c3ccco3)o2)c1 | inconclusive: 11.7 µM [inhibitor, single point]

SMILES | Potency
O=C(Nc1cccc(-c2ccc(N3CCOCC3)nn2)c1)c1ccccc1 | inactive
O=C(Cn1nc(-c2cccc(Cl)c2)ccc1=O)Nc1ccc(C(=O)NC2CC2)cc1 | inconclusive: 7.38 µM [inhibitor, partial curve, poor fit]
CC(/C=N/Nc1nc2ccccc2[nH]1)=C\c1ccccc1 | inconclusive: 0.657 µM [inhibitor, full curve, poor fit]
COc1ccc(NC(=O)CSCC(=O)Nc2nnc(C)s2)cc1 | inactive
COc1cccc(Oc2c(C)oc3c(CN4CCCCC4)c(O)ccc3c2=O)c1 | inactive
COc1ccc(C2=CC(c3ccc(OC)c(OC)c3)c3c(c4ccccc4oc3=O)O2)cc1OC (configuration not stated) | active: 8.28 µM
CCN(CC)c1ccc(S(=O)(=O)N(CC)CC)cc1NC(=O)C1CCCC1 | inconclusive: 11.7 µM [inhibitor, single point]
COC(=O)COc1ccc(/C=C2/NC(=O)N(CC(=O)OC)C2=O)cc1 | inconclusive: 11.7 µM [inhibitor, single point]
O=C(NCc1ccco1)C(Cc1ccccc1)N1C(=O)C2C3C=CC(C3)C2C1=O (configuration not stated) | inconclusive: 4.65 µM [inhibitor, partial curve]
NC1=NC(=O)/C(=C/c2ccc(Cl)cc2Cl)S1 | inconclusive: 1.04 µM [inhibitor, partial curve, poor fit]
CCCCn1c(-c2ccc(F)c(F)c2)nc2cc3[nH]c(=O)c(C(C)C)nc3cc21 | inconclusive: 18.5 µM [inhibitor, single point]
O=C(c1cc(N2C(=O)C3C4CCC(C4)C3C2=O)ccc1Cl)N1CCCCCC1 (configuration not stated) | inconclusive: 18.5 µM [inhibitor, single point]
COc1ccc(-c2nnc(Nc3ccc(OC)c(C(=O)N4CCCCC4)c3)c3ccccc23)cc1 | inconclusive: 5.86 µM [inhibitor, partial curve]
O=C(NCCCN1CCN(CCCNC(=O)c2cccc([N+](=O)[O-])c2)CC1)c1cccc([N+](=O)[O-])c1 | inconclusive: 18.5 µM [inhibitor, single point]
CCN(CC)CCCn1c2c(c(SCC(=O)Nc3ccc(OC(F)(F)F)cc3)nc1=O)CCC2 | inconclusive: 10.4 µM [inhibitor, single point]
CCOC(=O)C1=C(CSc2nc3c(cc2C#N)CN(C)CC3)OC(N)=C(C#N)C1c1ccncc1 (configuration not stated) | inconclusive: 5.86 µM [inhibitor, partial curve, poor fit]
Cc1ccc(C(=O)C2CCN(CC(=O)Nc3ccc(N(C)C)cc3)CC2)cc1 | inconclusive: 0.0041 µM [inhibitor, full curve, poor fit]
COC(=O)[C@@H]1C[C@@]2(O)[C@@H](O)[C@@H](O)[C@@H](O)C[C@H]2N1Cc1ccc(Cl)cc1 | inconclusive: 2.33 µM [inhibitor, full curve]
COc1cccc(CN2CCN(C(=O)c3cc(-c4cccnc4)nc4ccc(C)cc34)CC2)c1 | inconclusive: 1.17 µM [inhibitor, partial curve, poor fit]
CCOC(=O)C1CCCN(c2oc(-c3ccc(OC)cc3)nc2C#N)C1 (configuration not stated) | inconclusive: 0.0415 µM [inhibitor, full curve, poor fit]
Cc1cccc(C(=O)Nc2c(C(=O)N(C)C)cnn2-c2ccccc2)c1 | inactive

A section taken from the entries so far, for reference:
SMILES | Potency
O=C(c1cc(N2C(=O)C3C4CCC(C4)C3C2=O)ccc1Cl)N1CCCCCC1 (configuration not stated) | inconclusive: 18.5 µM [inhibitor, single point]
COc1ccc(-c2nnc(Nc3ccc(OC)c(C(=O)N4CCCCC4)c3)c3ccccc23)cc1 | inconclusive: 5.86 µM [inhibitor, partial curve]
